This passage reports binding results from PMC10353822.

This experiment concerns the target T1, TRIM33 with C-terminal FLAG, Q9UPN9.
T1 chain: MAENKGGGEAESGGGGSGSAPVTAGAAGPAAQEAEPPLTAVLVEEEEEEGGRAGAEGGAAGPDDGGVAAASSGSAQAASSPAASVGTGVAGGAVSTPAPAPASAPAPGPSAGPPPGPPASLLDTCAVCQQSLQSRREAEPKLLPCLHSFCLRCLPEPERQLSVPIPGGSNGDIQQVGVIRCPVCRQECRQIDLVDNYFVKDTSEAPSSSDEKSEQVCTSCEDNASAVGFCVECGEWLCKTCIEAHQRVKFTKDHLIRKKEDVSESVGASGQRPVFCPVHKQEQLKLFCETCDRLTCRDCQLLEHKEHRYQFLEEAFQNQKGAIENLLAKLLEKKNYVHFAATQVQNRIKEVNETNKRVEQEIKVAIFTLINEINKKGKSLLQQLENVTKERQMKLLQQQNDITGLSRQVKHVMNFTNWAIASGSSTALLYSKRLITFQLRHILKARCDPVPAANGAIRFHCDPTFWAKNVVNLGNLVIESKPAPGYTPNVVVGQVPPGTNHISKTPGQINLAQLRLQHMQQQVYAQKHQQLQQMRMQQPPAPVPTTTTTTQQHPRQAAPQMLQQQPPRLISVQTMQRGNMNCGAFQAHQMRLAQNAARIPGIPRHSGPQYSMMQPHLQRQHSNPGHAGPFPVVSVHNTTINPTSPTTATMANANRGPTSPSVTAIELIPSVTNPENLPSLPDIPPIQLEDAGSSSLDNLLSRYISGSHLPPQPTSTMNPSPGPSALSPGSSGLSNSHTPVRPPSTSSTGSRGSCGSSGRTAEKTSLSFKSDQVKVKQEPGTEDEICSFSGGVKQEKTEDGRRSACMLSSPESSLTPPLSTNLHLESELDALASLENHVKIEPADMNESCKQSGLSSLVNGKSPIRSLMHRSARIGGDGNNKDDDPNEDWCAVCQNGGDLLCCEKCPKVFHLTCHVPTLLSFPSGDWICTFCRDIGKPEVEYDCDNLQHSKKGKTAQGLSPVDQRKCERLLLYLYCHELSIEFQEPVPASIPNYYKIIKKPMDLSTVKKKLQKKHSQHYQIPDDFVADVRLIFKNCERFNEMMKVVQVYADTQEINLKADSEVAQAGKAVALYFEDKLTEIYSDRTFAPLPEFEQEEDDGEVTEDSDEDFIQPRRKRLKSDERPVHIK
Description: affinity purification with mass spectrometry; TRIM33-FLAG expressed in AGS-EBV-Z cells, dox 24 h; 6 mg lysate on anti-FLAG M2 magnetic beads 4 h at 4°C; RIPA buffer (50 mM Tris-HCl pH 8.0, 300 mM NaCl, 0.1% sodium deoxycholate, 0.5% NP40 substitute, 2 mM EDTA); two independent experiments. To be noted: remark: other sources report otherwise.

No constants are given. Whether binding was seen depends on the method and setting. Binding seen in cells or lysates may run through a third protein. These calls come from enrichment with a bait or labelling near it, and not all partners need be listed. Tags and fused reporters may be left off the sequences shown.

B1: TRIM24 (endogenous), O15164 1-1050 (protein)
chain: MEVAVEKAVAAAAAASAAASGGPSAAPSGENEAESRQGPDSERGGEAARLNLLDTCAVCHQNIQSRAPKLLPCLHSFCQRCLPAPQRYLMLPAPMLGSAETPPPVPAPGSPVSGSSPFATQVGVIRCPVCSQECAERHIIDNFFVKDTTEVPSSTVEKSNQVCTSCEDNAEANGFCVECVEWLCKTCIRAHQRVKFTKDHTVRQKEEVSPEAVGVTSQRPVFCPFHKKEQLKLYCETCDKLTCRDCQLLEHKEHRYQFIEEAFQNQKVIIDTLITKLMEKTKYIKFTGNQIQNRIIEVNQNQKQVEQDIKVAIFTLMVEINKKGKALLHQLESLAKDHRMKLMQQQQEVAGLSKQLEHVMHFSKWAVSSGSSTALLYSKRLITYRLRHLLRARCDASPVTNNTIQFHCDPSFWAQNIINLGSLVIEDKESQPQMPKQNPVVEQNSQPPSGLSSNQLSKFPTQISLAQLRLQHMQQQVMAQRQQVQRRPAPVGLPNPRMQGPIQQPSISHQQPPPRLINFQNHSPKPNGPVLPPHPQQLRYPPNQNIPRQAIKPNPLQMAFLAQQAIKQWQISSGQGTPSTTNSTSSTPSSPTITSAAGYDGKAFGSPMIDLSSPVGGSYNLPSLPDIDCSSTIMLDNIVRKDTNIDHGQPRPPSNRTVQSPNSSVPSPGLAGPVTMTSVHPPIRSPSASSVGSRGSSGSSSKPAGADSTHKVPVVMLEPIRIKQENSGPPENYDFPVVIVKQESDEESRPQNANYPRSILTSLLLNSSQSSTSEETVLRSDAPDSTGDQPGLHQDNSSNGKSEWLDPSQKSPLHVGETRKEDDPNEDWCAVCQNGGELLCCEKCPKVFHLSCHVPTLTNFPSGEWICTFCRDLSKPEVEYDCDAPSHNSEKKKTEGLVKLTPIDKRKCERLLLFLYCHEMSLAFQDPVPLTVPDYYKIIKNPMDLSTIKKRLQEDYSMYSKPEDFVADFRLIFQNCAEFNEPDSEVANAGIKLENYFEELLKNLYPEKRFPKPEFRNESEDNKFSDDSDDDFVQPRKKRLKSIEERQLLK
Take B1: the binding entry is given as “binds”.

B2: TRIM28 (endogenous), Q13263 1-835 (protein)
chain: MAASAAAASAAAASAASGSPGPGEGSAGGEKRSTAPSAAASASASAAASSPAGGGAEALELLEHCGVCRERLRPEREPRLLPCLHSACSACLGPAAPAAANSSGDGGAAGDGTVVDCPVCKQQCFSKDIVENYFMRDSGSKAATDAQDANQCCTSCEDNAPATSYCVECSEPLCETCVEAHQRVKYTKDHTVRSTGPAKSRDGERTVYCNVHKHEPLVLFCESCDTLTCRDCQLNAHKDHQYQFLEDAVRNQRKLLASLVKRLGDKHATLQKSTKEVRSSIRQVSDVQKRVQVDVKMAILQIMKELNKRGRVLVNDAQKVTEGQQERLERQHWTMTKIQKHQEHILRFASWALESDNNTALLLSKKLIYFQLHRALKMIVDPVEPHGEMKFQWDLNAWTKSAEAFGKIVAERPGTNSTGPAPMAPPRAPGPLSKQGSGSSQPMEVQEGYGFGSGDDPYSSAEPHVSGVKRSRSGEGEVSGLMRKVPRVSLERLDLDLTADSQPPVFKVFPGSTTEDYNLIVIERGAAAAATGQPGTAPAGTPGAPPLAGMAIVKEEETEAAIGAPPTATEGPETKPVLMALAEGPGAEGPRLASPSGSTSSGLEVVAPEGTSAPGGGPGTLDDSATICRVCQKPGDLVMCNQCEFCFHLDCHLPALQDVPGEEWSCSLCHVLPDLKEEDGSLSLDGADSTGVVAKLSPANQRKCERVLLALFCHEPCRPLHQLATDSTFSLDQPGGTLDLTLIRARLQEKLSPPYSSPQEFAQDVGRMFKQFNKLTEDKADVQSIIGLQRFFETRMNEAFGDTKFSAVLVEPPPMSLPGAGLSSQELSGGPGDGP
For B2, the binding result was “binds”.
